Reference: patent US7638514B2, “Pesticidally active phenol derivatives” (Syngenta Crop Protection, Inc., priority 2003, dated 2009)
Some results were stated once for a whole list of compounds, not compound by compound. At least one compound was matched to its structure with a doubt left.

Assays:
Type in all cases: in vivo
[1] = test system: Plutella xylostella caterpillars; experiment: Action against Plutella xylostella caterpillars; conditions: 400 ppm spray mixture on young cabbage plants; 10 caterpillars in the third stage; evaluation 3 days later
Method: (§1) Young cabbage plants are sprayed with an aqueous emulsion spray mixture comprising 400 ppm of test compound. After the spray-coating has dried, the cabbage plants are populated with 10 caterpillars of Plutella xylostella in the third stage and placed in a plastics container. Evaluation is made 3 days later. The percentage reduction in population and the percentage reduction in feeding damage (% activity) are determined by comparing the number of dead caterpillars and the feeding damage on the treated plants with that on the untreated plants.

[2] = test system: Spodoptera littoralis caterpillars; experiment: Action against Spodoptera littoralis; conditions: 400 ppm spray mixture on young soybean plants; 10 caterpillars in the first stage; 3 days later
Method: Young soybean plants are sprayed with an aqueous emulsion spray mixture comprising 400 ppm of test compound and, after the spray-coating has dried, the plants are populated with 10 caterpillars of Spodoptera littoralis in the first stage and then placed in a plastics container, 3 days later, the percentage reduction in population and the percentage reduction in feeding damage (% activity) are determined by comparing the number of dead caterpillars and the feeding damage on the treated plants with that on untreated plants.

[3] = test system: Heliothis virescens caterpillars; experiment: Action against Heliothis virescens caterpillars; conditions: 400 ppm spray mixture on young soybean plants; 10 caterpillars in the first stage; evaluation 6 days later
Method: as §1, with “soybean” for “cabbage”, “Heliothis virescens” for “Plutella xylostella”, “first” for “third”, “6” for “3”

Measured: percentage reduction in population and percentage reduction in feeding damage (% activity)

C=C(C(=O)NCCCOc1c(Cl)cc(OCC=C(Cl)Cl)cc1Cl)c1ccc(F)cc1 [Compound 1.6]
more than 80%: [1] | [2] | [3]

C=C(COc1c(Cl)cc(OCC=C(Cl)Cl)cc1Cl)CSc1ccccn1 [Compound 1.32]
more than 80%: [1] | [2] | [3]

C=C(COc1ccc(C(C)=NOC)cc1)COc1c(Cl)cc(OCC=C(Cl)Cl)cc1Cl [Compound 1.18]
more than 80%: [1] | [2] | [3]

C=C(COc1ccc(C(=NOC)c2ccon2)cc1)COc1c(Cl)cc(OCC=C(Cl)Cl)cc1Cl [Compound 1.37]
more than 80%: [1] | [2] | [3]

C=C(CON=C(C)c1ccc(C(F)(F)F)cn1)COc1c(Cl)cc(OCC=C(Cl)Cl)cc1Cl [Compound 1.41]
more than 80%: [1] | [2] | [3]

C=C(COc1ccc(C(C)=NOCC)cc1)COc1c(Cl)cc(OCC=C(Cl)Cl)cc1Cl [Compound 1.19]
more than 80%: [1] | [2] | [3]

C=C(COc1ccc(C(=O)CC)c(C)c1)COc1c(Cl)cc(OCC=C(Cl)Cl)cc1Cl [Compound 1.46]
more than 80%: [1] | [2] | [3]

C=C(COc1ccc([N+](=O)[O-])cc1)COc1c(Cl)cc(OCC=C(Cl)Cl)cc1Cl [Compound 1.11]
more than 80%: [1] | [2] | [3]

C=C(COc1ccc(C(CC)=NOCC)c(F)c1)COc1c(Cl)cc(OCC=C(Cl)Cl)cc1Cl [Compound 1.44]
more than 80%: [1] | [2] | [3]

C=C(COc1ccc(Cl)cc1Cl)COc1c(Cl)cc(OCC=C(Cl)Cl)cc1Cl [Compound 1.13]
more than 80%: [1] | [2] | [3]

C=C(COc1ccc(Oc2ncc(Cl)cc2F)cc1)COc1c(Cl)cc(OCC=C(Cl)Cl)cc1Cl [Compound 1.115]
more than 80%: [1] | [2] | [3]

C=C(COc1ccc(Cl)c(Cl)c1)COc1c(Cl)cc(OCC=C(Cl)Cl)cc1Cl [Compound 1.14]
more than 80%: [1] | [2] | [3]
